{"source": "patent US7335814B2", "about": "“Transgenic cells expressing glucosyltransferase nucleic acids” (The University of York, priority 2000, dated 2008)", "molecular_target": "T1, UGT71C1 (Arabidopsis thaliana, UniProt O82381)", "T1 construct": "GST (N); made in house; host or cells: E. coli", "T1 sequence (O82381 1-481)": "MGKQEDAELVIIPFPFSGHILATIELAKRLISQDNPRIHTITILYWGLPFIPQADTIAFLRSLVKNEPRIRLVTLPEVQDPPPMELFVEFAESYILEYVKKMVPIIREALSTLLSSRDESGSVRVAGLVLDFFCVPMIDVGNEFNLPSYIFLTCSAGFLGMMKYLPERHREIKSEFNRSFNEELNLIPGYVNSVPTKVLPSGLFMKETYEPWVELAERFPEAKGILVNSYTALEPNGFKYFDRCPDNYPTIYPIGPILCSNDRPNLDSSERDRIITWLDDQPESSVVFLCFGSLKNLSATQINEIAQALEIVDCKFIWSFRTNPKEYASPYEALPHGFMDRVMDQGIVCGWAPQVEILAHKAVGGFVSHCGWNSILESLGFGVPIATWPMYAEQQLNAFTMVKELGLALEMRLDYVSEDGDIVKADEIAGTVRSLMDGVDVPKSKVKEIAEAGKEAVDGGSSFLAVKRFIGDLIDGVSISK", "assay": "UGT71C1 glucosyltransferase specific activity towards phenolic compounds (reverse-phase HPLC)", "format": "biochemical", "conditions": "1 mM phenolic compound, 5 mM UDP-glucose, 50 mM TRIS-HCl pH 7.0, 30° C., 30 min; mean of three replicates ± standard deviation", "note": "At least one structure is not confirmed: it was looked up by name or label, or the drawing left a doubt.", "data": [{"molecule": "Oc1cc(O)c2cc(O)c(-c3ccc(O)c(O)c3)[o+]c2c1", "note": "[Cyanidin]", "values": [{"measurement": "Specific activity (UGT71C1)", "result": 0, "unit": "nkat/mg"}]}]}
